Our source for the binding values is PMC6877644.

No constants are given. Whether binding was seen depends on the method and setting. In cells and extracts the contact can be indirect. Some entries that bind do so weakly or less than the wild type. Tags and fused reporters may be left off the sequences shown.

The assay concerns the target T1, FLAG-MSL1 (D. melanogaster) (UniProt P50535).
T1 sequence: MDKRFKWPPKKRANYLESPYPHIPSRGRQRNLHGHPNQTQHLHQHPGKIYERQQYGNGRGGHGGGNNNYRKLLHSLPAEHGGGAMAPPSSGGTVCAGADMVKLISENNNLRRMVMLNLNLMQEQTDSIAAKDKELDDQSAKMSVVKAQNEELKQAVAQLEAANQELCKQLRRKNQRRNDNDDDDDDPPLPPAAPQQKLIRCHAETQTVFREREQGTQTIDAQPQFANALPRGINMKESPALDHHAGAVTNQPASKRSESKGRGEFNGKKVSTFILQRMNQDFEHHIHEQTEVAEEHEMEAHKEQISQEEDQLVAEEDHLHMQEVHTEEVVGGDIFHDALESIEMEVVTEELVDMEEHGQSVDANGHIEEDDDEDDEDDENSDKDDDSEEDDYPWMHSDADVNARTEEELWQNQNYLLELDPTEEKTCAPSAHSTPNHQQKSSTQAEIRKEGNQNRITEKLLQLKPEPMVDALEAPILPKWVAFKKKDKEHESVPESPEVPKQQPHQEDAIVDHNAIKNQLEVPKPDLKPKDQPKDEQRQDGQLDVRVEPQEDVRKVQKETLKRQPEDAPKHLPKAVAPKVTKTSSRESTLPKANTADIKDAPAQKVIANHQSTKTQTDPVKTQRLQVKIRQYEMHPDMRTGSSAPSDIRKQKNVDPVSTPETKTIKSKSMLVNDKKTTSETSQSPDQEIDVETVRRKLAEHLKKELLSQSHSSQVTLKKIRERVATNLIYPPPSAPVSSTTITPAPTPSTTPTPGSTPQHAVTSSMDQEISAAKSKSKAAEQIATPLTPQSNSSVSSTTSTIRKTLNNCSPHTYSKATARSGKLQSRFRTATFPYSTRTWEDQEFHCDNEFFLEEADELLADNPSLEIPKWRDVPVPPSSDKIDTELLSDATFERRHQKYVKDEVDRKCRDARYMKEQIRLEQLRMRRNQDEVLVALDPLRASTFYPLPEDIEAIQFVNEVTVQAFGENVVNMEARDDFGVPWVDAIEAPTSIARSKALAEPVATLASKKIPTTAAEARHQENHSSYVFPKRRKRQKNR
The assay can be described thus: co-IP; Sf21 extracts with JJ-complex (FLAG-JIL-1/untagged JASPer) and with FLAG-MSL1/untagged MSL2 and FLAG-MSL3 mixed to similar concentrations; IP with antibodies specific for the bait (MSL1 or JIL-1).

B1: untagged MSL2 (protein, UniProt P50534 1-773)
chain: MAQTAYLKVTRIAMRSASNLSKRRVEELNSGLGELRQLLSCVVCCQLLVDPYSPKGKRCQHNVCRLCLRGKKHLFPSCTQCEGCSDFKTYEENRMMAAQLLCYKTLCVHLLHSALFGELAGMRPQVARELVPRIKLPPKTTQEFIREGSNISDTFDIFLPQPDLPFLKDMPTSLPAETPPTSAVTTPELPYDHHLNISDIEAEAAATAEQGHFSPLPLLPTGSRMGMLSHAGQIVIATESSESGFMDQAWTDQVDLSGTVSVSKYTNSGNNFAVSYVMPTSATTKFDPQELQIGQVVQMADSTQLAVLAAVEETVETSTQLTVLSTTVEETVETSTQLEVLTSAEEPNEISDQLANLQVEESDEALVEETVEEAEGTSIPSEVVAEHMEEDQHLDVHTSQSPTQTEMEEAVEEHVATKTQLGHVQTELQDAESLQKDFEDAKAAAEEAKEKEKDLHAISAELQKEDSDEPTLKRKRTRTLKASQAAKIEPVPSEVKTKVQSGKGALRRIRGKDKEEKVKPPKPKCRCGISGSSNTLTTCRNSRCPCYKSYNSCAGCHCVCCKNPHKEDYVESDEDDDLEDFEMPKDVPEPMTQSEEPVVAEPRQEENSMAPPDSSAPISLVPLNNLQQSQHPLVLVQNEKGEYQGFNIFQGSKPLDPVTVGFTIRVQLQHTDGFGSLPQYAYIMPTIDPPNPPAPSLSPPPPPAPDREVIEPPAKKFRTSRTRRGRANFSALDTVDELVSGGSRSNSAAGDRSSATDNAHSLFEEIMSGSDDL
For the molecule B1, the binding result is on record as “binds”.
